# PubChem BioAssay AID1259308 | NCATS, 2017
# Purpose: 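Knock-downs that increase output of a recombinant reporter protein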 (primary screen)
# Cells: human HEK293 embryonic kidney cells stably expressing firefly luciferase (HEK-CMV-Luc2-Hygro)
# Reagents: single siRNA against human genes, 0.8 pmol siRNA per well
# Duration: 72 h
# Measurement: 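Luciferase light (ONE-Glo) measured on one replicate plate set and viability (CellTiter-Glo) on the other, scaled to a negative control siRNA, with robust z-scores and luciferase per cell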
# Direction: total luciferase, z-score and total luciferase, % of control: higher = more reporter protein produced; luciferase per cell, z-score: higher = more reporter output per viable cell; viable cells, % of control: higher = more viable cells
# Active means: 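An siRNA counts as active if its total luciferase robust z-score exceeds 3; genes with two or more such siRNAs out of three were retested with fresh siRNAs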
# Meaning of the calls: active = raised luciferase; inactive = no rise
# The deposit covers about 59,000 reagents; shown is a random part of them. Of all reagents, about 1,510 (2.6%) were called active. 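Calls use total luciferase alone and ignore viability, so some active siRNAs may act by altering cell number.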 Entries without a mark were called inactive. The numbers tell different reagents against one gene apart.
gene,reagent no.,"total luciferase, z-score","total luciferase, % of control","luciferase per cell, z-score","viable cells, % of control"
EFCAB3,1,0.283,87.5,0.219,92.3
EFCAB3,2,0.0196,82.3,-0.0341,92.8
EFCAB3,3,-0.55,71,-0.4,88.1
LOC440300,1,2.36,129,1.23,104
LOC440300,2,0.278,87.4,0.657,82.2
LOC440300,3,2.48,131,1.63,95.3
SFR1P2,1,1.21,106,0.823,95.3
SFR1P2,2,0.889,99.6,0.478,98.1
SFR1P2,3,-0.15,78.9,-0.841,110
FRG2C,1,0.361,89.1,-0.44,112
FRG2C,2,-0.36,74.7,-0.206,88.1
FRG2C,3,-0.144,79,-0.712,106
SLC25A51,1,-0.147,79,-0.636,104
SLC25A51,2,-1.09,60.3,-1.37,96.6
SLC25A51,3,0.514,92.1,0.0962,100
ANKRD40,1,-1.26,56.8,-1.12,85.2
ANKRD40,2,-1.5,52,-1.15,78.7
ANKRD40,3,-0.559,70.8,-1.02,103
NDUFA1,1,0.074,83.4,0.455,82.6
NDUFA1,2,-0.77,66.6,-1.5,111
NDUFA1,3,0.338,88.6,0.734,81.6
SLC26A6,1,3.32 (active),148,2.38,88.4
SLC26A6,2,-0.238,77.2,-0.703,104
SLC26A6,3,1.47,111,1.71,79.1
ADAMTS16,1,-0.467,72.6,-0.361,89.2
ADAMTS16,2,-0.618,69.6,-0.518,89.1
ADAMTS16,3,-0.2,77.9,-0.856,109
C8orf74,1,0.0381,82.6,-0.306,100
C8orf74,2,-0.509,71.8,-0.231,85.2
C8orf74,3,1.75,117,1.75,82.1
MDM4,1,0.952,101,0.617,95.8
MDM4,2,-2.12,39.8,-0.941,56.9
MDM4,3,-1.13,59.5,-0.505,75.9
SCARF1,1,0.247,86.8,-0.143,101
SCARF1,2,2.74,136,0.946,119
SCARF1,3,-1.25,57.1,-1.53,95.5
JHY,1,-0.373,74.5,-0.189,87.5
JHY,2,0.244,86.7,0.893,76.6
JHY,3,0.755,96.9,1.14,80.2
PPIL1,1,1.33,108,0.581,104
PPIL1,2,0.826,98.3,0.7,91.4
PPIL1,3,0.284,87.5,1.79,61.1
MLANA,1,0.998,102,1.55,75.5
MLANA,2,-0.661,68.7,0.655,64.6
MLANA,3,1.03,102,1.42,78.7
DNAJB6,1,-0.373,74.5,-0.204,87.8
DNAJB6,2,-0.401,73.9,0.00922,82.4
DNAJB6,3,0.0956,83.8,0.058,92.2
FNDC1,1,-0.944,63.1,-0.614,82.9
FNDC1,2,0.651,94.8,0.17,101
FNDC1,3,0.959,101,0.232,106
CCNQP1,1,-0.382,74.3,-0.194,87.3
CCNQP1,2,-0.453,72.9,0.0702,79.9
CCNQP1,3,-0.644,69.1,1.18,56.6
RPL27P8,1,1.28,107,1.26,86.1
RPL27P8,2,-0.122,79.5,-0.0613,90.2
RPL27P8,3,-2.6,30.1,-2.11,58.6

6 entries already listed, arranged by “total luciferase, z-score”, ascending.
gene,reagent no.,"total luciferase, z-score","total luciferase, % of control","luciferase per cell, z-score","viable cells, % of control"
ADAMTS16,2,-0.618,69.6,-0.518,89.1
C8orf74,2,-0.509,71.8,-0.231,85.2
ADAMTS16,3,-0.2,77.9,-0.856,109
C8orf74,1,0.0381,82.6,-0.306,100
MDM4,1,0.952,101,0.617,95.8
C8orf74,3,1.75,117,1.75,82.1
